From patent publication US20230192895A1, “PHARMACOKINETIC & PHARMACODYNAMIC MODEL FOR DETERMINING EFFECTIVE DOSE OF ANTI-TICAGRELOR ANTIBODY” (PhaseBio Pharmaceuticals, Inc., priority 2021, published 2023)

Test system: P2Y12 reactivity units (PRU)
Settings: read-out: EC50 (Emax model relating uncomplexed analyte to PD measure); final PK/PD model
Excerpt: where Base refers to the baseline (prior to administration of Ticagrelor) value. Emaxi, EC50i, and the Hill coefficient (γ) are parameters to be estimated. The same structural model was used for PRU, VASP, and LTA.
The Emax parameter relating TICA to PRU (as well as VASP and LTA) was fixed to 90%. […] It is anticipated that this parameter value would be large^13 so it was fixed at a large value. […] This value was chosen based on literature^9, 14. Finally, fm was set equal to 0.30.
For parameters that were to be estimated, most of the prior distributions were uninformative or weakly informative.

CCCSc1nc(N[C@@H]2C[C@H]2c2ccc(F)c(F)c2)c2nnn([C@@H]3C[C@H](O)[C@@H](O)[C@H]3O)c2n1 [TAM]
EC50: 0.0985 µM
